Source: PubChem BioAssay AID652243 (Drosophila RNAi Screening Center, 2013)
The deposit covers about 24,000 reagents; shown is a random part of those with a known target gene and a result. Over the whole deposit, 246 (1%) are marked active. 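Plates not normalised; calls are printed but the firefly/Renilla ratio behind them is not deposited; fold cut for lowering reported inconsistently.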 The raw values are shown without normalisation. Names joined by + are all predicted targets of the reagent. No sequences are given here. Not stated in the record: the amount of reagent.

Aim: 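Fly genes required for human androgen receptor driven transcription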 (primary screen)
Cell system: Drosophila S2R+ cells
Reagents: long dsRNA against Drosophila genes
Timing: 72 h (48 h, then 24 h hormone)
Challenge: synthetic androgen R1881 at 10 nM for 24 h
Measured: 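Firefly light from an androgen-responsive reporter and Renilla control light per well, raw and unnormalised, for each of two replicates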
Scale: firefly reporter light: higher = more light from androgen-responsive reporter; Renilla control light: higher = more constitutive control signal (cell number, transfection)
Hit rule: 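Across duplicate plates, a knock-down whose log firefly/Renilla ratio shifted a set fold down or up from the GFP/LacZ control mean was a hit; the downward cut appears as both 1.5 and 3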
Calls: active = hit: reporter lowered or raised; inactive = no hit

The first 7 entries, to show the layout:
| gene | dsRNA | firefly reporter light, replicate 1 | firefly reporter light, replicate 2 | Renilla control light, replicate 1 | Renilla control light, replicate 2 | Call |
| --- | --- | --- | --- | --- | --- | --- |
| CG42741 | DRSC04593 | 4.24e5 | 4.09e5 | 3.17e6 | 2.00e6 | inactive |
| CG42741 | DRSC22045 | 7.92e5 | 4.97e5 | 2.61e6 | 1.82e6 | inactive |
| CG42741 | DRSC30003 | 3.84e5 | 2.94e5 | 9.73e5 | 1.14e6 | inactive |
| CG9483 | DRSC03226 | 1.41e6 | 7.19e5 | 2.11e6 | 1.05e6 | inactive |
| CG9483 | DRSC29929 | 4.53e5 | 3.93e5 | 8.70e5 | 1.24e6 | inactive |
| Nt5c | DRSC06711 | 8.87e5 | 9.87e5 | 2.04e6 | 1.87e6 | inactive |
| Nt5c | DRSC27240 | 2.43e5 | 2.86e5 | 5.02e5 | 5.00e5 | inactive |

The listing, repeating the preview:
| gene | dsRNA | firefly reporter light, replicate 1 | firefly reporter light, replicate 2 | Renilla control light, replicate 1 | Renilla control light, replicate 2 | Call |
| --- | --- | --- | --- | --- | --- | --- |
| CG42741 | DRSC04593 | 4.24e5 | 4.09e5 | 3.17e6 | 2.00e6 | inactive |
| CG42741 | DRSC22045 | 7.92e5 | 4.97e5 | 2.61e6 | 1.82e6 | inactive |
| CG42741 | DRSC30003 | 3.84e5 | 2.94e5 | 9.73e5 | 1.14e6 | inactive |
| CG9483 | DRSC03226 | 1.41e6 | 7.19e5 | 2.11e6 | 1.05e6 | inactive |
| CG9483 | DRSC29929 | 4.53e5 | 3.93e5 | 8.70e5 | 1.24e6 | inactive |
| Nt5c | DRSC06711 | 8.87e5 | 9.87e5 | 2.04e6 | 1.87e6 | inactive |
| Nt5c | DRSC27240 | 2.43e5 | 2.86e5 | 5.02e5 | 5.00e5 | inactive |
| Elp4 | DRSC25002 | 7.41e5 | 7.61e5 | 8.83e5 | 7.98e5 | inactive |
| Uba5 | DRSC19775 | 5.40e5 | 4.28e5 | 3.75e6 | 3.57e6 | inactive |
| CG7567 | DRSC16258 | 2.05e5 | 2.29e5 | 1.68e6 | 2.17e6 | inactive |
| CG12438 | DRSC02167 | 2.06e5 | 1.06e5 | 1.36e6 | 1.07e6 | inactive |
| CG7747 | DRSC07038 | 8.73e5 | 1.01e6 | 1.87e6 | 1.63e6 | inactive |
| CG7747 | DRSC26745 | 6.77e5 | 5.31e5 | 7.03e5 | 5.53e5 | inactive |
| CG6040 | DRSC15954 | 1.21e5 | 90602 | 6.00e5 | 5.05e5 | inactive |
| CG6040 | DRSC26100 | 3.61e5 | 2.27e5 | 7.89e5 | 5.24e5 | inactive |
| CG13458 | DRSC10005 | 9.12e5 | 8.43e5 | 2.01e6 | 1.92e6 | inactive |
| CG13458 | DRSC24392 | 7.44e5 | 6.86e5 | 1.33e6 | 1.41e6 | inactive |
| Slc45-1 | DRSC10427 | 1.88e5 | 2.21e5 | 2.26e6 | 1.94e6 | inactive |
| CG13323 | DRSC06360 | 3.87e5 | 2.69e5 | 2.38e6 | 1.96e6 | inactive |
| tadr | DRSC03177 | 1.02e6 | 5.62e5 | 2.74e6 | 2.71e6 | inactive |
| mei-9 | DRSC18792 | 2.00e5 | 2.75e5 | 1.27e6 | 1.45e6 | inactive |
| Smyd5 | DRSC15483 | 2.41e5 | 1.95e5 | 3.09e6 | 3.14e6 | inactive |
| CG34002 | DRSC09512 | 4.41e5 | 5.87e5 | 3.24e5 | 3.52e5 | inactive |
| Snap25 | DRSC21228 | 2.38e5 | 2.64e5 | 6.26e5 | 4.47e5 | inactive |
| Snap25 | DRSC21236 | 7.10e5 | 7.42e5 | 1.41e6 | 1.35e6 | inactive |
| bru3 | DRSC09280 | 4.96e5 | 4.80e5 | 2.56e6 | 2.00e6 | inactive |
| bru3 | DRSC09687 | 7.09e5 | 4.59e5 | 1.86e6 | 1.69e6 | inactive |
| bru3 | DRSC09887 | 2.82e5 | 3.82e5 | 2.88e6 | 2.56e6 | inactive |
| bru3 | DRSC22732 | 3.02e5 | 4.24e5 | 1.37e6 | 7.86e5 | inactive |
| bru3 | DRSC28166 | 8.57e5 | 1.01e6 | 1.58e6 | 1.96e6 | inactive |
| bru3 | DRSC38591 | 6.37e5 | 5.76e5 | 1.07e6 | 1.04e6 | inactive |
| inc | DRSC17954 | 3.02e5 | 2.67e5 | 3.06e6 | 2.68e6 | inactive |
| inc | DRSC18512 | 5.09e5 | 5.32e5 | 1.45e6 | 1.31e6 | inactive |
| inc | DRSC28898 | 3.77e5 | 1.97e5 | 1.15e6 | 7.73e5 | inactive |
| CG12680 | DRSC17871 | 2.20e5 | 2.06e5 | 2.04e6 | 2.04e6 | inactive |
| CCKLR-17D3 | DRSC20015 | 1.16e5 | 79776 | 1.41e5 | 45339 | inactive |
| CCKLR-17D3 | DRSC20017 | 3.01e5 | 1.60e5 | 1.04e6 | 3.57e5 | inactive |
| CCKLR-17D3 | DRSC23715 | 6.82e5 | 8.19e5 | 1.12e6 | 1.19e6 | inactive |
| CG14492 | DRSC06463 | 82875 | 83534 | 1.02e6 | 1.02e6 | inactive |
| pico | DRSC19430 | 1.30e5 | 57741 | 5.67e5 | 2.16e5 | inactive |
| CG17107 | DRSC02575 | 4.21e5 | 4.10e5 | 2.99e6 | 2.76e6 | inactive |
| CG17107 | DRSC22627 | 9.52e5 | 6.14e5 | 1.41e6 | 1.06e6 | inactive |
| CG17107 | DRSC25263 | 6.94e5 | 6.95e5 | 8.83e5 | 7.30e5 | inactive |
| CG5687 | DRSC08568 | 9.37e5 | 7.51e5 | 2.07e6 | 1.62e6 | inactive |
| Bro | DRSC08149 | 35881 | 63942 | 9.64e5 | 9.66e5 | inactive |
| Hsp60D | DRSC02543 | 1.00e5 | 1.57e5 | 1.14e6 | 1.16e6 | inactive |
| Hsp60D | DRSC29118 | 4.45e5 | 4.77e5 | 1.41e6 | 1.30e6 | inactive |
| CG17780 + CG17781 | DRSC15266 | 92468 | 92601 | 2.11e6 | 2.39e6 | inactive |
| CG17780 + CG17781 | DRSC25581 | 6.97e5 | 5.60e5 | 7.73e5 | 7.66e5 | inactive |
| CG17780 + CG17781 | DRSC26816 | 2.94e5 | 3.00e5 | 3.93e5 | 3.50e5 | inactive |
| CG18258 | DRSC19798 | 3.67e5 | 2.99e5 | 3.51e6 | 3.11e6 | inactive |
| CG18258 | DRSC29203 | 4.41e5 | 3.83e5 | 1.12e6 | 1.05e6 | inactive |
| RpL19 | DRSC04649 | 5.99e5 | 5.61e5 | 8.56e5 | 9.59e5 | inactive |
| RpL19 | DRSC28391 | 4.18e5 | 6.64e5 | 5.58e5 | 8.95e5 | inactive |
| CG4666 | DRSC18379 | 4.50e5 | 4.91e5 | 2.44e6 | 3.11e6 | inactive |
| CG5746 | DRSC15868 | 1.20e5 | 89149 | 6.59e5 | 6.86e5 | inactive |
| CG5746 | DRSC25452 | 5.07e5 | 6.14e5 | 8.06e5 | 8.37e5 | inactive |
| CG7856 | DRSC04896 | 2.64e5 | 3.58e5 | 2.18e6 | 2.68e6 | inactive |
| SmB | DRSC03437 | 9.79e5 | 1.24e6 | 2.03e6 | 2.66e6 | inactive |
| SmB | DRSC26259 | 2.40e5 | 2.42e5 | 6.54e5 | 8.81e5 | inactive |
| CG4582 | DRSC15605 | 1.73e5 | 2.38e5 | 2.74e6 | 2.93e6 | inactive |
| l(3)72Dn | DRSC10468 | 36134 | 38077 | 4.37e5 | 3.71e5 | inactive |
| Fmo-2 | DRSC04983 | 6.19e5 | 4.81e5 | 1.21e6 | 1.19e6 | inactive |
| CG42512 + CG32573 | DRSC19532 | 6.42e5 | 5.91e5 | 3.56e6 | 3.05e6 | inactive |
| CG42512 + CG32573 | DRSC19906 | 1.97e5 | 1.55e5 | 1.50e6 | 1.52e6 | inactive |
| CG42512 + CG32573 | DRSC22782 | 7.20e5 | 9.79e5 | 1.12e6 | 1.33e6 | inactive |
| Trim9 | DRSC02242 | 2.60e5 | 2.44e5 | 1.71e6 | 1.50e6 | inactive |
| Trim9 | DRSC28679 | 6.05e5 | 4.11e5 | 1.64e6 | 1.58e6 | inactive |
| piwi | DRSC03592 | 9.07e5 | 7.36e5 | 1.23e6 | 1.32e6 | inactive |
| sano | DRSC06165 | 1.03e6 | 9.96e5 | 1.45e6 | 1.33e6 | inactive |
| sano | DRSC26307 | 2.41e5 | 2.43e5 | 6.77e5 | 5.93e5 | inactive |
| tsh | DRSC03740 | 3.76e5 | 4.11e5 | 2.10e6 | 2.02e6 | inactive |
| CG31207 | DRSC21886 | 5.97e5 | 8.46e5 | 4.96e5 | 4.65e5 | inactive |
| sty | DRSC22994 | 5.45e5 | 6.15e5 | 1.38e6 | 1.78e6 | inactive |
| sty | DRSC25779 | 1.90e5 | 2.54e5 | 5.58e5 | 3.92e5 | inactive |
